# Laboratory results as given in the supplement of paper PMC6411743.
# The chains behind the UniProt entries cited, without tags or fusion partners. Where a name states a change or a piece, a line headed by the entry shows the natural chain unless it says otherwise.
# UniProt Q13464: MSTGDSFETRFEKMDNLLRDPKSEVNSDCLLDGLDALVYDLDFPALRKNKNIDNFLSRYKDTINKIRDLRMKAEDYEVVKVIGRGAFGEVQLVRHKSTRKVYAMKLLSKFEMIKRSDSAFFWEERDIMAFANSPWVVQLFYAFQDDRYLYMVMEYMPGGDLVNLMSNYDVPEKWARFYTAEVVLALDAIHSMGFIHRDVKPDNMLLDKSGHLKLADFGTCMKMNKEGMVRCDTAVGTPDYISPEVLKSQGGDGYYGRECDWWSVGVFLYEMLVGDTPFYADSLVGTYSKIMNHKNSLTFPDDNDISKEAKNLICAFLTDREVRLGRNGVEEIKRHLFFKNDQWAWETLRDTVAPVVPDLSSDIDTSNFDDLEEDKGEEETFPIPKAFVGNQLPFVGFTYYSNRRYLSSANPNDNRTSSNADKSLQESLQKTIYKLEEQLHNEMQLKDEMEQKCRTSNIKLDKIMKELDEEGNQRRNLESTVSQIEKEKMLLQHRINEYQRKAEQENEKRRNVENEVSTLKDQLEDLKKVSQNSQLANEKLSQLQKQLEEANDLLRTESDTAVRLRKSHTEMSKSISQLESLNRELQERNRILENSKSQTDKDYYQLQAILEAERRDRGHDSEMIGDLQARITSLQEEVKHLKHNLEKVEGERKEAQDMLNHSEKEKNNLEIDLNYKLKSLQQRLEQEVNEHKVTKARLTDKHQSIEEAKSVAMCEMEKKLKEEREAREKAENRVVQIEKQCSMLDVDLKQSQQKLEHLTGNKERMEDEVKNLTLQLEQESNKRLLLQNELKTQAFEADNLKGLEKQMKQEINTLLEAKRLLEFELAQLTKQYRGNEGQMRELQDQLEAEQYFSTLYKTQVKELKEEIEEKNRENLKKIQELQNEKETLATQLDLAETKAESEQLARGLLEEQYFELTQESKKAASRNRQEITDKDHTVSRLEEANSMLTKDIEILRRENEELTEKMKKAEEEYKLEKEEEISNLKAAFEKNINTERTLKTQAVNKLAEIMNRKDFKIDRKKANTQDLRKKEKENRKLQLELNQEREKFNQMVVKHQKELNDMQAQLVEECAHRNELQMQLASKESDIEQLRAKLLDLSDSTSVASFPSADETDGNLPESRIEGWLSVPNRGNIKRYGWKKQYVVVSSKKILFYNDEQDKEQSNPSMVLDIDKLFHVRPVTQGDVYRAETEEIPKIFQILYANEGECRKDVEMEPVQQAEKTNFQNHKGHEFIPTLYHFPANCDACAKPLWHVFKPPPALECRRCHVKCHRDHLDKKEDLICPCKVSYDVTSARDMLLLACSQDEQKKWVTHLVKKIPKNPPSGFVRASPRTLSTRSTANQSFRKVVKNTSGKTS
# UniProt Q13905: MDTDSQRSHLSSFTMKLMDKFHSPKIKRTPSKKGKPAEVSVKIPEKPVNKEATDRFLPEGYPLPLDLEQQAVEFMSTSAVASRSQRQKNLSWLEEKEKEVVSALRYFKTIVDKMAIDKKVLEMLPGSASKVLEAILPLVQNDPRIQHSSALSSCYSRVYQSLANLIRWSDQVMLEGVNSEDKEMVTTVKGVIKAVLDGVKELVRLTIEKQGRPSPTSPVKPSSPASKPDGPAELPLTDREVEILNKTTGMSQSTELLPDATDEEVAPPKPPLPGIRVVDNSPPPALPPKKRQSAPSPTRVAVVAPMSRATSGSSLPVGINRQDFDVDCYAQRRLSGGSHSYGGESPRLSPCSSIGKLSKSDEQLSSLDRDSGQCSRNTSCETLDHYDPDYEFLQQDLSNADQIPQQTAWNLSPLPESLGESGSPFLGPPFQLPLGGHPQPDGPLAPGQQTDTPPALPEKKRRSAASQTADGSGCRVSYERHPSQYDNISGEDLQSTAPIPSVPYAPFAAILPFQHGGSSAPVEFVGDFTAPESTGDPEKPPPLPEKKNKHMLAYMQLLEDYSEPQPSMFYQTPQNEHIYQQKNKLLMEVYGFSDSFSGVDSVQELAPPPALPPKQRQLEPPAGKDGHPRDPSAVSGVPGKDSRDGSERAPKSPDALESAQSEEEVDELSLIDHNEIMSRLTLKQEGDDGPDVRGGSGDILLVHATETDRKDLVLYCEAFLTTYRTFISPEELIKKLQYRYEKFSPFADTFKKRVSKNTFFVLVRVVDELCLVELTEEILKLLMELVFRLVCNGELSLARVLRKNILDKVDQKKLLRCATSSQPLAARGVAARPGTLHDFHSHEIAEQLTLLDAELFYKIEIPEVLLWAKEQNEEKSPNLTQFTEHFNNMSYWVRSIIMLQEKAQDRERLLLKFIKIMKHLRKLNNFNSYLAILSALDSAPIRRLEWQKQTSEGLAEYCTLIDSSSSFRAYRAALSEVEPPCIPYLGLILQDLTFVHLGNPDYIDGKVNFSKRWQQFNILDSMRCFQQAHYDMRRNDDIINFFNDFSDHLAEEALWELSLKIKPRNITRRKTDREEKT
# UniProt Q08AF3: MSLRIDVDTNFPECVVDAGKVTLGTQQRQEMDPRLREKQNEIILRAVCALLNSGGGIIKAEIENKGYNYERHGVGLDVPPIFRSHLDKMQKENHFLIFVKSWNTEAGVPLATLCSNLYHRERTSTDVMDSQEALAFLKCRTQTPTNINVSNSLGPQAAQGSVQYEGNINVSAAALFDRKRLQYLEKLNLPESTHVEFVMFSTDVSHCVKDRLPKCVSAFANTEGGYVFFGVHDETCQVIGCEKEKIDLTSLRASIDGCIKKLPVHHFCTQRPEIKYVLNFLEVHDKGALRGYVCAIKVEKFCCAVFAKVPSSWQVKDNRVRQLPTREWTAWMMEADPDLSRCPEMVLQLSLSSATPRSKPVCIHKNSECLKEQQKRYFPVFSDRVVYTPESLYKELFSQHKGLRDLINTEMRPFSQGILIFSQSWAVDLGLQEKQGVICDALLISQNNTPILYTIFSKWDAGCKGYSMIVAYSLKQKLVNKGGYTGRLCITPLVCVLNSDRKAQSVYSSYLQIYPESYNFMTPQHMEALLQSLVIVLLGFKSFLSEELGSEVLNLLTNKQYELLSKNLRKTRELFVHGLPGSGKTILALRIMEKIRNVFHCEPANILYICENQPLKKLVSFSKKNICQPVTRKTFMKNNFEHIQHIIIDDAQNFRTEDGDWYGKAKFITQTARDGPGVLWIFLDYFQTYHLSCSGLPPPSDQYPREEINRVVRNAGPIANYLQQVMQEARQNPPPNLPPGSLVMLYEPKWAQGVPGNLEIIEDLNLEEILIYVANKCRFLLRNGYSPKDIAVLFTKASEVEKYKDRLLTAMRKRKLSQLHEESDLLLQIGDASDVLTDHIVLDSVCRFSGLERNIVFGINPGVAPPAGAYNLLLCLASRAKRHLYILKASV
# UniProt Q06265, whole entry: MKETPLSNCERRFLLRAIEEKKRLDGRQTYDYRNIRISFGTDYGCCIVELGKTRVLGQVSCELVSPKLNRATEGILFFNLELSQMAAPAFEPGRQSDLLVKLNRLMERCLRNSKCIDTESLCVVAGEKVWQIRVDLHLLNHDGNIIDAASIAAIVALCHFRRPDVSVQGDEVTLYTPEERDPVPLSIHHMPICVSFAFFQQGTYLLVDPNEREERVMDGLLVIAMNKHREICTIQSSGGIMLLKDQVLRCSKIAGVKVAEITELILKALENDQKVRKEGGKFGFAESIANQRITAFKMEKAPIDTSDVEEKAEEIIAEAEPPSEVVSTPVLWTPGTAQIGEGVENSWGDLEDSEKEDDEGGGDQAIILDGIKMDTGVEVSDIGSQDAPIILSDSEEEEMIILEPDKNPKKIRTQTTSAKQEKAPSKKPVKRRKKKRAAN
# UniProt Q12972: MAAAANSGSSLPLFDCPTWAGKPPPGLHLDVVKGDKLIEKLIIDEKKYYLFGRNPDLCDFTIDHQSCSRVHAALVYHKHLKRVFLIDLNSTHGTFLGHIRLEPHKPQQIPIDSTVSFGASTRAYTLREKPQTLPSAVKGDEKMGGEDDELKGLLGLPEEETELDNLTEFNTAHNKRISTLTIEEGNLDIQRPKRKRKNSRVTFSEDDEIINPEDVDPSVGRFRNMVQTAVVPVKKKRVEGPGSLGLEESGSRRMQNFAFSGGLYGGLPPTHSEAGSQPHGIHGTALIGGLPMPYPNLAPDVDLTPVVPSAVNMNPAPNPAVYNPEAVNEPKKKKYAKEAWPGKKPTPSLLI
# UniProt Q02127: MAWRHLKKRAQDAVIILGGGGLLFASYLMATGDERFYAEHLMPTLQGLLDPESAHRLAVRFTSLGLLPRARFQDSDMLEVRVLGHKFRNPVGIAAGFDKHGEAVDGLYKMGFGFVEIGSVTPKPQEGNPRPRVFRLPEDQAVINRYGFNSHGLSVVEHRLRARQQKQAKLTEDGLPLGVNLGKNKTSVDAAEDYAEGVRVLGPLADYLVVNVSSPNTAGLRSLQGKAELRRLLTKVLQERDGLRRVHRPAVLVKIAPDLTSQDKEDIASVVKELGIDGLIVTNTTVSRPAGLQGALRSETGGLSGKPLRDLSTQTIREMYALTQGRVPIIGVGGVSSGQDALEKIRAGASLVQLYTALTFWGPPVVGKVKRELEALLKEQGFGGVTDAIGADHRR
# UniProt Q08623: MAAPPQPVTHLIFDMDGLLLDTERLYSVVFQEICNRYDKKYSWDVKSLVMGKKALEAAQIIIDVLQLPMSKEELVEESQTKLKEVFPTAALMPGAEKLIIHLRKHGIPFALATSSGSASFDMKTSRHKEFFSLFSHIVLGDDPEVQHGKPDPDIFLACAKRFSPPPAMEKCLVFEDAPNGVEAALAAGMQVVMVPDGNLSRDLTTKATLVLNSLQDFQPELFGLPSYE
# UniProt Q02818: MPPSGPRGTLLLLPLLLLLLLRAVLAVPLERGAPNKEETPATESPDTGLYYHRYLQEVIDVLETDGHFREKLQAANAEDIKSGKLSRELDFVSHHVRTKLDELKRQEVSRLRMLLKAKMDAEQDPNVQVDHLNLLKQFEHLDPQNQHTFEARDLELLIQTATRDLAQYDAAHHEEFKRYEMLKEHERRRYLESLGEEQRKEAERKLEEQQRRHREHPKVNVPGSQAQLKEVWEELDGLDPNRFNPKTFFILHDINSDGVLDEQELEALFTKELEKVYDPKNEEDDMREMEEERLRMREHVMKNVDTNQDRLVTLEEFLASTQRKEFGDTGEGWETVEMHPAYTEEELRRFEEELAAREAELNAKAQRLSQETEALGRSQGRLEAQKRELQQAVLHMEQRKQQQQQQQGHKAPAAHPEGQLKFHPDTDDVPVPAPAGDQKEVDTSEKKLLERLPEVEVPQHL
# UniProt Q13895: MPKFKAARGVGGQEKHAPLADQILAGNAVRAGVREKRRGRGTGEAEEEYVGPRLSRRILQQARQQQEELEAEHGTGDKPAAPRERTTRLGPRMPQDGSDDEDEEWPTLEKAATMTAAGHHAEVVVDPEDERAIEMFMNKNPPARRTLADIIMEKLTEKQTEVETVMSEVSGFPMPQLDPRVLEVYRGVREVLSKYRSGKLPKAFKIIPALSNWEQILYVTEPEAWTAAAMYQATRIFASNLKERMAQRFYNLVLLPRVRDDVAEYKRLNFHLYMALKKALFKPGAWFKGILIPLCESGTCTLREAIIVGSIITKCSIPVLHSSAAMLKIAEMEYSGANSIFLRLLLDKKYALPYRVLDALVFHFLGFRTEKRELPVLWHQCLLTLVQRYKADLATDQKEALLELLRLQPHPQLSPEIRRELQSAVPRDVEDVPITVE
# UniProt Q13530: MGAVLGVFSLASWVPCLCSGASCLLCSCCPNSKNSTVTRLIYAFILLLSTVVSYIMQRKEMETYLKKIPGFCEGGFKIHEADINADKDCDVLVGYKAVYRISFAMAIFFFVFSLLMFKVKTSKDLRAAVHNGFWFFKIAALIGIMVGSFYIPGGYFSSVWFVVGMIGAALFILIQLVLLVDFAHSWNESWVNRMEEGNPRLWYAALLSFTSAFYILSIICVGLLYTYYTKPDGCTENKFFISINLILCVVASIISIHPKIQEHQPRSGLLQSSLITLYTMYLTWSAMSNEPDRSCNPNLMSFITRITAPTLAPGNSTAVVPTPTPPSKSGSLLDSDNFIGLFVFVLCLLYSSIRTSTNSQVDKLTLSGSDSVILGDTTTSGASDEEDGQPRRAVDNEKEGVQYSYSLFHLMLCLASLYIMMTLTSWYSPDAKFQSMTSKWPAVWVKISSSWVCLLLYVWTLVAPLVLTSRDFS
# UniProt Q03405, whole entry: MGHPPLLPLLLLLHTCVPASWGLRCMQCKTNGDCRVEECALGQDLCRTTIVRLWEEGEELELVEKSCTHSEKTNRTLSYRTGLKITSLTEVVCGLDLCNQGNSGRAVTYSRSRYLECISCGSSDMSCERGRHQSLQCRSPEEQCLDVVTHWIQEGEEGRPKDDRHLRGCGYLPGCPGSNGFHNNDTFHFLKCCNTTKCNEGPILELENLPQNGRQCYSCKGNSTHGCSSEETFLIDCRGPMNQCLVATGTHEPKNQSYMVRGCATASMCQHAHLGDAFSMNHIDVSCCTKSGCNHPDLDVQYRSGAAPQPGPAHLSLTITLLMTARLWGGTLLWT
# ± gives the standard deviation of the averaged measurements. This is a selection; strong and weak results do not stand in their true shares.
# Compound: Nc1ncnc2c1ncn2[C@@H]1O[C@H](COP(=O)(O)OP(=O)(O)OP(=O)(O)O)[C@@H](O)[C@H]1O [adenosine triphosphate]
# Assay: NP40-soluble protein abundance relative to vehicle (solubility fold change) (ratio); higher = more soluble protein in presence of ATP
# Procedure, shortened: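 Data come from three independent experiments in which Dounce-homogenised Jurkat crude lysate was treated at eight concentrations from 0.1 to 10 mM. Treatment ran 10 min at room temperature and then 3 min at 37 °C, after which 0.8% NP40 and benzonase were added for 60 min at 4 °C before ultracentrifugation. The supernatant underwent TMT labelling and LC-MS/MS, and vsn-normalised intensities were expressed as fold change against the detergent-processed vehicle in each replicate.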
Target,NP40-soluble protein abundance (concentration: 1mM),NP40-soluble protein abundance (concentration: 2mM),NP40-soluble protein abundance (concentration: 4mM),NP40-soluble protein abundance (concentration: 6mM),NP40-soluble protein abundance (concentration: 8mM),NP40-soluble protein abundance (concentration: 10mM)
HDAC1 (UniProt Q13547),0.967 ± 0.028,0.951 ± 0.017,0.878 ± 0.028,0.94 ± 0.047,0.937 ± 0.058,0.958 ± 0.034
UniProt Q13422 and related entries,1 ± 0.039,1.01 ± 0.054,1.03 ± 0.033,1.1 ± 0.07,1.08 ± 0.017,1.12 ± 0.036
UniProt Q06330 and related entries,0.97 ± 0.055,1.04 ± 0.039,1.04 ± 0.011,0.942 ± 0.056,0.99 ± 0.018,1.06 ± 0.018
SLC7A5 (UniProt Q01650),0.957 ± 0.045,0.945 ± 0.025,0.92 ± 0.035,0.992 ± 0.042,0.899 ± 0.026,0.925 ± 0.062
UniProt Q13370 and related entries,1.02 ± 0.063,0.943 ± 0.055,0.939 ± 0.088,1.04 ± 0.086,1.01 ± 0.12,0.978 ± 0.088
RIPK1 (UniProt Q13546),1.04 ± 0.054,1.04 ± 0.046,1.01 ± 0.053,0.962 ± 0.072,1.04 ± 0.034,1.02 ± 0.044
ROCK1 (UniProt Q13464),0.969 ± 0.03,0.974 ± 0.03,0.952 ± 0.027,0.996 ± 0.031,0.943 ± 0.03,0.952 ± 0.045
UniProt Q02410 and related entries,0.89 ± 0.26,0.982 ± 0.022,0.941 ± 0.12,1.03 ± 0.046,0.928 ± 0.14,1.04 ± 0.089
UniProt Q13905 and related entries,0.971 ± 0.033,0.975 ± 0.022,0.98 ± 0.037,0.967 ± 0.062,0.955 ± 0.023,0.946 ± 0.019
CSTF1 (UniProt Q05048),1.01 ± 0.028,1.03 ± 0.037,1.07 ± 0.012,1.03 ± 0.013,1.11 ± 0.015,1.08 ± 0.021
REST (UniProt Q13127),1.06 ± 0.16,1.07 ± 0.088,1.07 ± 0.08,1.07 ± 0.092,1.05 ± 0.1,1.077 ± 0.008
LRP1 (UniProt Q07954),0.987 ± 0.13,0.947 ± 0.054,0.987 ± 0.12,0.958 ± 0.091,0.961 ± 0.088,0.918 ± 0.099
GNL2 (UniProt Q13823),1.08 ± 0.029,1.15 ± 0.024,1.23 ± 0.078,1.32 ± 0.06,1.29 ± 0.055,1.34 ± 0.071
UniProt Q13190 and related entries,1 ± 0.015,1.01 ± 0.017,0.973 ± 0.016,0.991 ± 0.046,0.981 ± 0.016,1 ± 0.016
ITPK1 (UniProt Q13572),0.914 ± 0.053,0.887 ± 0.077,0.89 ± 0.064,0.952 ± 0.14,0.881 ± 0.059,0.909 ± 0.022
MGAT5 (UniProt Q09328),0.975 ± 0.074,1.01 ± 0.04,0.948 ± 0.16,1 ± 0.13,0.903 ± 0.061,0.927 ± 0.086
UniProt Q12800 and related entries,0.991 ± 0.16,1.03 ± 0.093,1.02 ± 0.096,0.952 ± 0.12,1.02 ± 0.11,1.06 ± 0.088
PIN1 (UniProt Q13526),0.9 ± 0.062,0.968 ± 0.026,0.939 ± 0.012,0.943 ± 0.021,0.925 ± 0.036,0.936 ± 0.025
SLFN5 (UniProt Q08AF3),1.16 ± 0.02,1.18 ± 0.027,1.18 ± 0.044,1.13 ± 0.061,1.18 ± 0.072,1.22 ± 0.069
ADAM9 (UniProt Q13443),0.888 ± 0.14,0.957 ± 0.13,0.87 ± 0.046,0.992 ± 0.1,0.902 ± 0.049,0.908 ± 0.023

# Reformatted: results already given
Target	NP40-soluble protein abundance (concentration: 1mM)	NP40-soluble protein abundance (concentration: 2mM)	NP40-soluble protein abundance (concentration: 4mM)	NP40-soluble protein abundance (concentration: 6mM)	NP40-soluble protein abundance (concentration: 8mM)	NP40-soluble protein abundance (concentration: 10mM)
UniProt Q06330 and related entries	0.97 ± 0.055	1.04 ± 0.039	1.04 ± 0.011	0.942 ± 0.056	0.99 ± 0.018	1.06 ± 0.018
RIPK1 (UniProt Q13546)	1.04 ± 0.054	1.04 ± 0.046	1.01 ± 0.053	0.962 ± 0.072	1.04 ± 0.034	1.02 ± 0.044

# Carrying on.

Target,NP40-soluble protein abundance (concentration: 1mM),NP40-soluble protein abundance (concentration: 2mM),NP40-soluble protein abundance (concentration: 4mM),NP40-soluble protein abundance (concentration: 6mM),NP40-soluble protein abundance (concentration: 8mM),NP40-soluble protein abundance (concentration: 10mM)
UniProt Q13595 and related entries,1.24 ± 0.082,1.29 ± 0.19,1.42 ± 0.18,1.43 ± 0.31,1.44 ± 0.25,1.56 ± 0.29
ALDH6A1 (UniProt Q02252),0.988 ± 0.04,0.979 ± 0.034,0.958 ± 0.029,0.968 ± 0.041,0.959 ± 0.023,0.964 ± 0.029
MLLT1 (UniProt Q03111),0.993 ± 0.073,1.02 ± 0.065,0.999 ± 0.064,1.04 ± 0.02,0.995 ± 0.054,1.01 ± 0.045
UniProt Q06265 and related entries,1.04 ± 0.054,1.05 ± 0.059,1.13 ± 0.04,1.1 ± 0.082,1.18 ± 0.032,1.2 ± 0.078
UniProt Q13618 and related entries,1.02 ± 0.1,0.997 ± 0.1,0.999 ± 0.064,0.966 ± 0.096,1.02 ± 0.075,0.985 ± 0.068
UniProt Q13952 and related entries,0.92 ± 0.05,0.934 ± 0.029,0.926 ± 0.039,0.951 ± 0.015,0.911 ± 0.011,0.89 ± 0.039
EP300 (UniProt Q09472),0.962 ± 0.049,0.986 ± 0.02,0.972 ± 0.036,0.983 ± 0.034,0.953 ± 0.027,0.963 ± 0.035
PPP1R8 (UniProt Q12972),0.965 ± 0.063,0.958 ± 0.042,0.941 ± 0.051,0.975 ± 0.038,0.899 ± 0.031,0.931 ± 0.022
UniProt Q13501 and related entries,0.987 ± 0.075,1 ± 0.083,0.948 ± 0.079,1.06 ± 0.22,0.897 ± 0.086,0.963 ± 0.065
DSG2 (UniProt Q14126),0.954 ± 0.041,0.984 ± 0.025,1.01 ± 0.052,1 ± 0.046,0.943 ± 0.02,0.96 ± 0.051
ACY1 (UniProt Q03154),1.05 ± 0.1,1.01 ± 0.095,0.999 ± 0.082,0.985 ± 0.083,1.01 ± 0.079,0.983 ± 0.081
GRAP (UniProt Q13588),1.14 ± 0.21,1.06 ± 0.086,1.13 ± 0.16,1.08 ± 0.18,1.1 ± 0.092,1.13 ± 0.11
UniProt Q13029 and related entries,1.14 ± 0.098,1.18 ± 0.048,1.24 ± 0.11,1.32 ± 0.1,1.25 ± 0.077,1.35 ± 0.12
UniProt Q12797 and related entries,1 ± 0.081,1.01 ± 0.094,1.04 ± 0.1,1.05 ± 0.11,1.02 ± 0.086,1.04 ± 0.085
PDCL (UniProt Q13371),0.983 ± 0.03,0.961 ± 0.028,0.959 ± 0.026,0.992 ± 0.07,1 ± 0.067,0.994 ± 0.074
SPAG1 (UniProt Q07617),0.936 ± 0.091,0.968 ± 0.04,0.998 ± 0.028,0.946 ± 0.068,0.91 ± 0.054,0.922 ± 0.039
SNX1 (UniProt Q13596),0.977 ± 0.029,0.983 ± 0.013,0.982 ± 0.0089,0.984 ± 0.048,0.98 ± 0.013,0.973 ± 0.024
UniProt Q13416,0.944 ± 0.042,0.965 ± 0.044,0.983 ± 0.048,1.01 ± 0.052,0.968 ± 0.049,0.981 ± 0.024
UniProt Q13332-2|Q13332-6,0.992 ± 0.11,1.04 ± 0.081,1.04 ± 0.062,1.05 ± 0.053,1 ± 0.019,1.02 ± 0.075
PMPCA (UniProt Q10713),1.03 ± 0.088,0.996 ± 0.063,0.979 ± 0.077,0.961 ± 0.08,1.01 ± 0.072,0.98 ± 0.041

Target,NP40-soluble protein abundance (concentration: 1mM),NP40-soluble protein abundance (concentration: 2mM),NP40-soluble protein abundance (concentration: 4mM),NP40-soluble protein abundance (concentration: 6mM),NP40-soluble protein abundance (concentration: 8mM),NP40-soluble protein abundance (concentration: 10mM)
UniProt Q12979-2|A0A0G2JQ41|Q12979 and related entries,1.03 ± 0.066,1.01 ± 0.055,0.998 ± 0.079,0.972 ± 0.093,0.991 ± 0.053,0.982 ± 0.055
UniProt Q06124-2|Q06124,1 ± 0.026,1.01 ± 0.039,0.992 ± 0.04,1.01 ± 0.077,1 ± 0.053,0.981 ± 0.051
DHODH (UniProt Q02127),1.02 ± 0.019,0.9924 ± 0.0012,0.987 ± 0.027,0.95 ± 0.067,0.972 ± 0.015,0.974 ± 0.05
UniProt Q13951-2|Q13951,0.97 ± 0.044,0.96 ± 0.042,0.977 ± 0.02,1.02 ± 0.052,0.984 ± 0.027,1 ± 0.028
NNT (UniProt Q13423),0.9855 ± 0.0053,0.988 ± 0.017,0.963 ± 0.015,0.973 ± 0.02,0.961 ± 0.016,0.958 ± 0.03
UniProt Q08623 and related entries,1.03 ± 0.046,1 ± 0.032,1.04 ± 0.011,0.959 ± 0.068,0.997 ± 0.017,0.973 ± 0.037
CKAP4 (UniProt Q07065),1.05 ± 0.054,1.03 ± 0.028,1.1 ± 0.045,1.17 ± 0.075,1.09 ± 0.021,1.06 ± 0.029
NUCB1 (UniProt Q02818),0.954 ± 0.13,0.974 ± 0.059,0.954 ± 0.11,0.971 ± 0.18,0.999 ± 0.17,0.9216 ± 0.0068
BYSL (UniProt Q13895),1.07 ± 0.07,1.06 ± 0.058,1.06 ± 0.059,1.03 ± 0.041,1.04 ± 0.024,1.07 ± 0.051
TARDBP (UniProt Q13148),0.994 ± 0.046,0.958 ± 0.02,0.934 ± 0.026,0.9801 ± 0.0073,0.932 ± 0.029,0.956 ± 0.049
USP4 (UniProt Q13107),1 ± 0.022,1.02 ± 0.035,1 ± 0.074,0.968 ± 0.021,0.984 ± 0.02,0.989 ± 0.025
EEF1A2 (UniProt Q05639),1.05 ± 0.064,0.96 ± 0.038,0.9724 ± 0.0075,0.922 ± 0.19,0.866 ± 0.085,0.934 ± 0.019
UniProt Q13530 and related entries,1.01 ± 0.093,1.05 ± 0.041,0.98 ± 0.034,0.973 ± 0.059,0.991 ± 0.072,0.937 ± 0.041
DPYD (UniProt Q12882),0.997 ± 0.031,1.03 ± 0.04,0.995 ± 0.027,0.971 ± 0.035,0.987 ± 0.025,0.984 ± 0.019
PFKP (UniProt Q01813),1.05 ± 0.043,1 ± 0.012,0.99 ± 0.022,0.986 ± 0.015,1.01 ± 0.03,0.993 ± 0.058
PLAUR (UniProt Q03405),1.16 ± 0.14,1.16 ± 0.15,1.17 ± 0.2,1.21 ± 0.16,1.1 ± 0.12,1.11 ± 0.098
RNASEL (UniProt Q05823),1.118 ± 0.0075,1.13 ± 0.013,1.139 ± 0.0069,1.11 ± 0.02,1.1 ± 0.063,1.1 ± 0.015
GALNT1 (UniProt Q10472),1.04 ± 0.02,1.07 ± 0.063,1.06 ± 0.054,1.06 ± 0.059,1.03 ± 0.056,1.06 ± 0.023
UniProt Q06547 and related entries,0.947 ± 0.018,0.968 ± 0.021,0.93 ± 0.041,0.964 ± 0.026,0.941 ± 0.03,0.929 ± 0.057
UniProt Q12789 and related entries,1.08 ± 0.092,1.05 ± 0.049,1.05 ± 0.03,1.02 ± 0.017,1.08 ± 0.013,1.06 ± 0.054
